30 molecules from PMC8074078 can be followed below.

Chains of the proteins cited; added tags and fusions are not shown. Lines headed by an entry give the natural chain unless they say otherwise; changes in a name come on top. A line that says so, or that is headed by a name, gives the form on record, which may keep a tag or linker.
His6-PACRG (Parkin co-regulated gene) (Q96M98, form named): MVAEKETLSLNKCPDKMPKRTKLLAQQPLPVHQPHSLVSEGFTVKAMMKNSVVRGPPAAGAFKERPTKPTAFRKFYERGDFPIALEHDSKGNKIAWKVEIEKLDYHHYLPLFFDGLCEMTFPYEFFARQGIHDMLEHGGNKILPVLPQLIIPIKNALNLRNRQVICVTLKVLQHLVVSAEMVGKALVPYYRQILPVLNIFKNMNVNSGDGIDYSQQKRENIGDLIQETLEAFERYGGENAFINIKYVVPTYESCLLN
UniProt O94992: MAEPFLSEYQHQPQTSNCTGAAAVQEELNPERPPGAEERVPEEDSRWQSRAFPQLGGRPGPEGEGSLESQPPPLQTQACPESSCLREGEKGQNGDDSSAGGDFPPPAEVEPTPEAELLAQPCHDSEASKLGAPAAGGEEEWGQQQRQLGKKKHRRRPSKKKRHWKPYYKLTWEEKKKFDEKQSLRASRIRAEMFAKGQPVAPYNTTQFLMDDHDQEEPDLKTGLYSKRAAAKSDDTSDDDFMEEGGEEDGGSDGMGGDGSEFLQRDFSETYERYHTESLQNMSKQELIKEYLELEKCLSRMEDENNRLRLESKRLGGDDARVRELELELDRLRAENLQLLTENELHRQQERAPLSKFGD
UniProt P0DMV8: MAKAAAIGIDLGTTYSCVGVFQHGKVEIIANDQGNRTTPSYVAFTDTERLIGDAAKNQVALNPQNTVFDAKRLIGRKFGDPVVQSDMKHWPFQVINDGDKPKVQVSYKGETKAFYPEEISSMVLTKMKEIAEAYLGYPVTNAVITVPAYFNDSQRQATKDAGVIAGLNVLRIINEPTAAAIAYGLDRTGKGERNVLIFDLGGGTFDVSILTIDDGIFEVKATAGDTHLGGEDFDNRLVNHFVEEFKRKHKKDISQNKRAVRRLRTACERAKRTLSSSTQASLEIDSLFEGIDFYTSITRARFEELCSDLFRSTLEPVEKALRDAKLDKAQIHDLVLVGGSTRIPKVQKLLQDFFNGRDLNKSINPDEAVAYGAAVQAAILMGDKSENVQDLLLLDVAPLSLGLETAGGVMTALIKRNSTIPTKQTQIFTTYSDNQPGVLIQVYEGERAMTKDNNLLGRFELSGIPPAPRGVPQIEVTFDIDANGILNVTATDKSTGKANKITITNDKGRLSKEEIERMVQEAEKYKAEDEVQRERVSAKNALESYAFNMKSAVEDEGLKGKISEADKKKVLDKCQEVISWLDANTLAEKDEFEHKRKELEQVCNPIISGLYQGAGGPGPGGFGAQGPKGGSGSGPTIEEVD
UniProt Q9Y6M1: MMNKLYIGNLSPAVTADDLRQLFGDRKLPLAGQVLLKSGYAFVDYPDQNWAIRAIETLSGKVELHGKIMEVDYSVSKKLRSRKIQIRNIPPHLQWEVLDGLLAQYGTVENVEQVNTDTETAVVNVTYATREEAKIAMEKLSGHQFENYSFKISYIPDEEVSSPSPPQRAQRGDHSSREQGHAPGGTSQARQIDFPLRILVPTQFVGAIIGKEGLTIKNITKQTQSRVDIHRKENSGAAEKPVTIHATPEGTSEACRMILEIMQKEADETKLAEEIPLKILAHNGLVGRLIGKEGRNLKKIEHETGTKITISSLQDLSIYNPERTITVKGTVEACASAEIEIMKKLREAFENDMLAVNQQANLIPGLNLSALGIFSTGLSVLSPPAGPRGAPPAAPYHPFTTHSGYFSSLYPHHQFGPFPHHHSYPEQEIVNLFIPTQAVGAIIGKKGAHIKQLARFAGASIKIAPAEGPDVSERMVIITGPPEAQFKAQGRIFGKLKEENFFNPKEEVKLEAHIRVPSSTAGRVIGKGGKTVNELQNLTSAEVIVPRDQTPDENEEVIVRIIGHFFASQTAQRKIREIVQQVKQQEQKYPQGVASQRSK
UniProt Q9BUI4: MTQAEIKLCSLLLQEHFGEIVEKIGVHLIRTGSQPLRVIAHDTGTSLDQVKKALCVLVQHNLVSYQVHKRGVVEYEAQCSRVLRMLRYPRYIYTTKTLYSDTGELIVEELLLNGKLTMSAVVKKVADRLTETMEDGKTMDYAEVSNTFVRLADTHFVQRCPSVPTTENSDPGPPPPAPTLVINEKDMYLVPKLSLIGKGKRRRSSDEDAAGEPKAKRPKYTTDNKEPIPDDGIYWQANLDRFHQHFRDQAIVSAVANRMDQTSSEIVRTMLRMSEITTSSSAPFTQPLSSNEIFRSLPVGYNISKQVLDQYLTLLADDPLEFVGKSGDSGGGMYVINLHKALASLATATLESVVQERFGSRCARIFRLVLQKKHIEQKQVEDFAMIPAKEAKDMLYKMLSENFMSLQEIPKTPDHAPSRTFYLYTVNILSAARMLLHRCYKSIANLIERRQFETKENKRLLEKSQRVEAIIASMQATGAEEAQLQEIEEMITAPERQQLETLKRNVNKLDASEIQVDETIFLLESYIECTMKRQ
UniProt Q7L4I2: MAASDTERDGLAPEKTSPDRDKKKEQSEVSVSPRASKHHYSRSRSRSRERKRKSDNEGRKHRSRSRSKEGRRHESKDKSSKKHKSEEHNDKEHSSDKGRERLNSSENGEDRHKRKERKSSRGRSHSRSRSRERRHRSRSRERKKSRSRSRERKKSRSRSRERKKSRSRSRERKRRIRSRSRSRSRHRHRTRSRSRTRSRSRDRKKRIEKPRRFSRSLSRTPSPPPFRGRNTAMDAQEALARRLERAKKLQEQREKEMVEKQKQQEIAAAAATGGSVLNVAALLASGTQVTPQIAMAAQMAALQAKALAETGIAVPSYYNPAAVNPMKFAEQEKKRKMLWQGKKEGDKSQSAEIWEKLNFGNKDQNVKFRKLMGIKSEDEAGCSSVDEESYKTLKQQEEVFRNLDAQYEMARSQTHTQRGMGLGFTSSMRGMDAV
UniProt P84022: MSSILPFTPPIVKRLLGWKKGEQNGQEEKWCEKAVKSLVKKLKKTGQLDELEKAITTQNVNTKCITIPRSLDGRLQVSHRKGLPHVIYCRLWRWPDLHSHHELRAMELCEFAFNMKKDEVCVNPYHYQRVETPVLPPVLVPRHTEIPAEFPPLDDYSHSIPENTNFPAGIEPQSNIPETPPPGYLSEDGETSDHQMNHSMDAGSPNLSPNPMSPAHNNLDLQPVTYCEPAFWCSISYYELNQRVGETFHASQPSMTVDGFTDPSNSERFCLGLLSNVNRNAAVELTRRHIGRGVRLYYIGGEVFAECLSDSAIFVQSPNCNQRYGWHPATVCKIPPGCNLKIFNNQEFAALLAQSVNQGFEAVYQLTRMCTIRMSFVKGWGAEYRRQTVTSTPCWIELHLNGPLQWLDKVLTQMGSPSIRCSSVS
UniProt Q13485: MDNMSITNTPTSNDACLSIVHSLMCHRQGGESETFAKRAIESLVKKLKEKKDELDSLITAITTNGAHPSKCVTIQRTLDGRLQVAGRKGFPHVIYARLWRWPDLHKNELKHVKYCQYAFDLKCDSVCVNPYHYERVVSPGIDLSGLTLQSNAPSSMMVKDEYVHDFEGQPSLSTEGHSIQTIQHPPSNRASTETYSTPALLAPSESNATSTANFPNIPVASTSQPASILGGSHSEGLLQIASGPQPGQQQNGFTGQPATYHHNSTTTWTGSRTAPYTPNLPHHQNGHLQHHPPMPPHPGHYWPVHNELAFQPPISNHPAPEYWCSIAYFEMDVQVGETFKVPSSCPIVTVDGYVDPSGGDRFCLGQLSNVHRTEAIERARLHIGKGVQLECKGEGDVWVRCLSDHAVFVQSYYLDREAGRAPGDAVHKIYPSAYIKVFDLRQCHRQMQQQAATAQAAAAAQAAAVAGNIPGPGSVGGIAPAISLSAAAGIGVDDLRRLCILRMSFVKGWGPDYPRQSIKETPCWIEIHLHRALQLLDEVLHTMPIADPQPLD
UniProt Q13425: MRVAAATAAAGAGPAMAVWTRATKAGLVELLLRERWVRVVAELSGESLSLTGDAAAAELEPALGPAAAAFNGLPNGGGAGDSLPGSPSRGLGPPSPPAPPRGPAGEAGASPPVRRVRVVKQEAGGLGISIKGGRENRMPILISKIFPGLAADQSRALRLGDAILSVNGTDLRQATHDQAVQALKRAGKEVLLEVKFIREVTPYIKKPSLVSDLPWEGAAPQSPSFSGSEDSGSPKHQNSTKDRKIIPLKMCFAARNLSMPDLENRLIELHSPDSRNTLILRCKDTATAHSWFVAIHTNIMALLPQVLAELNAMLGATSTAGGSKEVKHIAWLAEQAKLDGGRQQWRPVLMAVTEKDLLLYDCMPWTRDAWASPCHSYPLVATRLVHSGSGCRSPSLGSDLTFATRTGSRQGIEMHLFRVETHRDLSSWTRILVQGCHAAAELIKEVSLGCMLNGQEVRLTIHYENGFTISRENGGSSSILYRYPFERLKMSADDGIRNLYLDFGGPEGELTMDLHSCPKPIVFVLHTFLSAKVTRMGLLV
UniProt Q9BVA1: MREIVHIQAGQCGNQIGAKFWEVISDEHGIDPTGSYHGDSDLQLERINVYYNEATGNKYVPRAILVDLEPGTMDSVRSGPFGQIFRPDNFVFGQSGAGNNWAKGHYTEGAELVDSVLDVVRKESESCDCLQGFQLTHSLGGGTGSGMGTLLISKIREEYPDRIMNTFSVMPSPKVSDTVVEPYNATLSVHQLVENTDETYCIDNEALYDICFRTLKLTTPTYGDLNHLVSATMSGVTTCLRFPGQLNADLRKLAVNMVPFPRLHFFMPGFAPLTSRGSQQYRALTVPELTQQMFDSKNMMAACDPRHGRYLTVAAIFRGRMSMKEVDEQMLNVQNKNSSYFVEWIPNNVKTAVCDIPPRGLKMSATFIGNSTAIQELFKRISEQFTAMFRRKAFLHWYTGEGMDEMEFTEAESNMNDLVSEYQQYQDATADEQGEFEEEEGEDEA
UniProt Q9UGJ1: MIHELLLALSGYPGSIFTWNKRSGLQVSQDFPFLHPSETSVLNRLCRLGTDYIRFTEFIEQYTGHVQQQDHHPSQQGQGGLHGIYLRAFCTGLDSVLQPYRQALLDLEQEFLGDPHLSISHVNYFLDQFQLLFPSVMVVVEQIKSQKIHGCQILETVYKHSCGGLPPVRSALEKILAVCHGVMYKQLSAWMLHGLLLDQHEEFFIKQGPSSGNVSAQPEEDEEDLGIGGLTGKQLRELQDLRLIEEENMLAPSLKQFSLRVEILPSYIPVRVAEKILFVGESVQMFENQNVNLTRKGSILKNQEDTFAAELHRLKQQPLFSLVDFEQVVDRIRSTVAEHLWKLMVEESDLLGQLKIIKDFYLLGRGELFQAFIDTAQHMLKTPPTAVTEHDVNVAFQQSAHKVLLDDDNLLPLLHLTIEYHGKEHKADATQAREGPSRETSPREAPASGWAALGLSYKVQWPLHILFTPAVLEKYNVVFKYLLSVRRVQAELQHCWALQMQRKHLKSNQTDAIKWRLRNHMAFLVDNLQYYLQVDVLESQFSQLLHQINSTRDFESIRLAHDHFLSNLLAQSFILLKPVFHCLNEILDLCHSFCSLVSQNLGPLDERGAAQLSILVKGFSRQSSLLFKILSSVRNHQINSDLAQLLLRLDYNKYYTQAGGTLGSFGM
UniProt P17028: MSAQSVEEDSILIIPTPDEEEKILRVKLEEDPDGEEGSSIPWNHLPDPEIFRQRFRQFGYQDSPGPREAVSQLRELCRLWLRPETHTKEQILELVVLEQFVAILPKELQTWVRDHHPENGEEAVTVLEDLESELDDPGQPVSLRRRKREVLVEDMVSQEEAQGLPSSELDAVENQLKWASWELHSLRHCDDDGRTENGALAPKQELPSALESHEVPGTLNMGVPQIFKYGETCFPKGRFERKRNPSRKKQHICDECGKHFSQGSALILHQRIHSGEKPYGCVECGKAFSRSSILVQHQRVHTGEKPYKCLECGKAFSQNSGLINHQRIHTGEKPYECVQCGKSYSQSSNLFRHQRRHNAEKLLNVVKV
UniProt Q6DD87: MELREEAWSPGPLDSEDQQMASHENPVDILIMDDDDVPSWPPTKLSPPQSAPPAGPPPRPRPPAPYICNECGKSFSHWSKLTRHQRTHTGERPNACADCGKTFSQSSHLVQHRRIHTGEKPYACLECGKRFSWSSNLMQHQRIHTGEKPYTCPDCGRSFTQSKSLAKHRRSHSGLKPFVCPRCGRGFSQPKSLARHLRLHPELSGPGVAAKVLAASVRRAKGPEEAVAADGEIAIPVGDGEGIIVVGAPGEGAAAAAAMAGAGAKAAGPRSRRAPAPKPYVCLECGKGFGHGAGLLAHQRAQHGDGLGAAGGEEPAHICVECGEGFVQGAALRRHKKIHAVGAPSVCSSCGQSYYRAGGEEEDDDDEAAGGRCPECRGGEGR
UniProt P55036: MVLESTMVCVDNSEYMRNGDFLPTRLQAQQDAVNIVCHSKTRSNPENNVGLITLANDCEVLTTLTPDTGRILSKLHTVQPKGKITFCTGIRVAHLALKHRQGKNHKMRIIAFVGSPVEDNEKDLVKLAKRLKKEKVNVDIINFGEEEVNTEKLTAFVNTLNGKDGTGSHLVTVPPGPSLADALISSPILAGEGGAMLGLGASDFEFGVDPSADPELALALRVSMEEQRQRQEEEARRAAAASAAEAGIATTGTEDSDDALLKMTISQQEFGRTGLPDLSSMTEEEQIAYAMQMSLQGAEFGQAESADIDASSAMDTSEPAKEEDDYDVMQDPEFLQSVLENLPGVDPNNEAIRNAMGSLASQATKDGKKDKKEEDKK

Where two headings read alike, the source gives them in different places. Results are given in words; binding and its absence hold for the method and conditions named. In cells and extracts the contact can be indirect. A yes stands for co-enrichment or nearness to the bait. Other partners may have been found.

Common to all, as to assay: affinity purification with mass spectrometry; purified His6-tagged bait coupled to Ni2+-charged resin (2 h, 4 °C), incubated 2 h with supernatant of HEK293T cell lysate, washed three times with 5 mM imidazole; bound proteins identified by LC-MS/MS; controls: Ni2+-charged resin alone (for His6-PACRG) and His6-GST (for His6-GST-PACRG); only proteins found with both baits accepted; only the target purified

Experiment [1] addresses His6-GST-PACRG (human) (UniProt Q96M98).
Experiment [2] has as its target His6-PACRG (Parkin co-regulated gene) (human) (UniProt Q96M98).
Experiment [3] deals with His6-GST-PACRG (human) (UniProt Q96M98). This is another data set of the same source.
Experiment [4] deals with His6-PACRG (Parkin co-regulated gene) (human) (UniProt Q96M98). The source holds these as a separate data set.

For the molecule ATG16L1 (from UniProt Q676U5 1-607), the binding result in experiment [1] and in experiment [2] was “binds” each time.
BCLAF1 (from UniProt Q9NYF8 1-920): the binding entry in experiment [1] and in experiment [2] was “binds” each time.
As for DHX15 (from UniProt O43143 1-795), the binding result in experiment [1] and in experiment [2] was “binds” each time.
For FUBP1 (from UniProt Q96AE4 1-644), the binding entry in experiment [1] and in experiment [2] was “binds” in each case.
As for HEXIM1 (from UniProt O94992 1-359), the binding entry in experiment [1] and in experiment [2] was “binds” each time.
As for HSPA1A (from UniProt P0DMV8 1-641), the binding entry in experiment [1] and in experiment [2] was “binds” throughout.
Regarding HSPA5 (from UniProt P11021 19-654), the binding entry in experiment [1] and in experiment [2] was “binds” in each case.
For HSPA8 (from UniProt P11142 1-646), the binding entry in experiment [1] and in experiment [2] was “binds” in each case.
Regarding HSPD1 (from UniProt P10809 27-573), the binding entry in experiment [1] and in experiment [2] was “binds” in each case.
Turning to IGF2BP2 (from UniProt Q9Y6M1 1-599), the binding entry in experiment [1] and in experiment [2] was “binds” each time.
Take IRF3 (from UniProt Q14653 1-427): the binding result in experiment [1] and in experiment [2] was “binds” throughout.
Regarding MNX1 (from UniProt P50219 1-401), the binding result in experiment [1] and in experiment [2] was “binds” each time.
Take POLR3C (from UniProt Q9BUI4 1-534): the binding result in experiment [1] and in experiment [2] was “binds” in each case.
With PPP2R1B (from UniProt P30154 1-601), the binding entry in experiment [1] and in experiment [2] was “binds” throughout.
As to RSRC2 (from UniProt Q7L4I2 1-434), the binding entry in experiment [1] and in experiment [2] was “binds” each time.
Consider SMAD1 (from UniProt Q15797 1-465), for which the binding entry in experiment [1] and in experiment [2] was “binds” in each case.
Regarding SMAD3 (from UniProt P84022 1-425), the binding result in experiment [1] and in experiment [2] was “binds” throughout.
For SMAD4 (from UniProt Q13485 1-552), the binding entry in experiment [1] and in experiment [2] was “binds” throughout.
As to SNTB2 (from UniProt Q13425 1-540), the binding entry in experiment [1] and in experiment [2] was “binds” in each case.
For STXBP1 (from UniProt P61764 1-594), the binding result in experiment [1] and in experiment [2] was “binds” each time.
As to TUBB2B (from UniProt Q9BVA1 1-445), the binding result in experiment [1] and in experiment [2] was “binds” throughout.
As for TUBGCP4 (from UniProt Q9UGJ1 1-667), the binding entry in experiment [1] and in experiment [2] was “binds” each time.
On to USP35 (from UniProt Q9P2H5 1-1018), for which the binding result in experiment [1] and in experiment [2] was “binds” throughout.
In the case of ZNF24 (from UniProt P17028 1-368), the binding entry in experiment [1] and in experiment [2] was “binds” in each case.
With ZNF787 (from UniProt Q6DD87 1-382), the binding entry in experiment [1] and in experiment [2] was “binds” in each case.
With “proteasome regulatory subunit PSMD4 (from UniProt P55036 1-377)”, the binding result in experiment [1] and in experiment [2] was “binds” each time.
With “transcription factor YY1 (Yin Yang 1) (from UniProt P25490 1-414)”, the binding entry in experiment [1] and in experiment [2] was “binds” throughout.

B1: HOMER1 (protein, UniProt Q86YM7 1-354)
chain: MGEQPIFSTRAHVFQIDPNTKKNWVPTSKHAVTVSYFYDSTRNVYRIISLDGSKAIINSTITPNMTFTKTSQKFGQWADSRANTVYGLGFSSEHHLSKFAEKFQEFKEAARLAKEKSQEKMELTSTPSQESAGGDLQSPLTPESINGTDDERTPDVTQNSEPRAEPTQNALPFSHSSAISKHWEAELATLKGNNAKLTAALLESTANVKQWKQQLAAYQEEAERLHKRVTELECVSSQANAVHTHKTELNQTIQELEETLKLKEEEIERLKQEIDNARELQEQRDSLTQKLQEVEIRNKDLEGQLSDLEQRLEKSQNEQEAFRNNLKTLLEILDGKIFELTELRDNLAKLLECS
For B1, the binding entry in experiment [3] and in experiment [4] was “binds” throughout.

B2: UBP1 (protein, UniProt Q9NZI7 1-540)
chain: MAWVLKMDEVIESGLVHDFDASLSGIGQELGAGAYSMSDVLALPIFKQEDSSLPLDGETEHPPFQYVMCAATSPAVKLHDETLTYLNQGQSYEIRMLDNRKMGDMPEINGKLVKSIIRVVFHDRRLQYTEHQQLEGWKWNRPGDRLLDLDIPMSVGIIDTRTNPSQLNAVEFLWDPAKRTSAFIQVHCISTEFTPRKHGGEKGVPFRIQVDTFKQNENGEYTDHLHSASCQIKVFKPKGADRKQKTDREKMEKRTAHEKEKYQPSYDTTILTEMRLEPIIEDAVEHEQKKSSKRTLPADYGDSLAKRGSCSPWPDAPTAYVNNSPSPAPTFTSPQQSTCSVPDSNSSSPNHQGDGASQTSGEQIQPSATIQETQQWLLKNRFSSYTRLFSNFSGADLLKLTKEDLVQICGAADGIRLYNSLKSRSVRPRLTIYVCREQPSSTVLQGQQQAASSASENGSGAPYVYHAIYLEEMIASEVARKLALVFNIPLHQINQVYRQGPTGIHILVSDQMVQNFQDESCFLFSTVKAESSDGIHIILK
For the molecule B2, the binding entry in experiment [3] and in experiment [4] was “binds” each time.

B3: USP39 (protein, UniProt Q53GS9 1-565)
chain: MSGRSKRESRGSTRGKRESESRGSSGRVKRERDREREPEAASSRGSPVRVKREFEPASAREAPASVVPFVRVKREREVDEDSEPEREVRAKNGRVDSEDRRSRHCPYLDTINRSVLDFDFEKLCSISLSHINAYACLVCGKYFQGRGLKSHAYIHSVQFSHHVFLNLHTLKFYCLPDNYEIIDSSLEDITYVLKPTFTKQQIANLDKQAKLSRAYDGTTYLPGIVGLNNIKANDYANAVLQALSNVPPLRNYFLEEDNYKNIKRPPGDIMFLLVQRFGELMRKLWNPRNFKAHVSPHEMLQAVVLCSKKTFQITKQGDGVDFLSWFLNALHSALGGTKKKKKTIVTDVFQGSMRIFTKKLPHPDLPAEEKEQLLHNDEYQETMVESTFMYLTLDLPTAPLYKDEKEQLIIPQVPLFNILAKFNGITEKEYKTYKENFLKRFQLTKLPPYLIFCIKRFTKNNFFVEKNPTIVNFPITNVDLREYLSEEVQAVHKNTTYDLIANIVHDGKPSEGSYRIHVLHHGTGKWYELQDLQVTDILPQMITLSEAYIQIWKRRDNDETNQQGA
For the molecule B3, the binding entry in experiment [3] and in experiment [4] was “binds” throughout.
